# Primary screen of a compound library

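Viability assay of Plasmodium falciparum sporozoites; the read-out is not stated. The concentration is filed as 10 mM, unlikely as a test dose, so the dose is not known. The record gives no direction; compounds that gave an IC50 in retests scored well above the rest, so higher reads as lower viability. Strong results were mostly tested again. About 34,000 compounds were tested under these conditions; 0.84% (about 280) showed 50% or more at least once.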

Values are the deposited “Percent Effect”, in %.
How 0% and 100% were set is not recorded. Most values in the screen are low, and negative values occur.
Compounds were drawn at random from those tested, without regard to their results.
Two or more numbers in one place are separate tests of the same structure; such repeats can differ widely.

structure | percent effect
O=C(c1ccccn1)N1CCC(Nc2cccnn2)CC1 | -2.662
CC(C)c1nc(C2CCCN(C(=O)c3ccc4[nH]cnc4c3)C2)no1 (centres unmarked) | -2.543
CCCS(=O)(=O)c1ncc(CN2CCC(CO)CC2)n1CC1CCCO1 (centres unmarked) | -2.912
Fc1ccc(-c2cnc(C3CCNCC3)cn2)cc1 | 7.316
O=C(C1CNCCN1C(=O)CCOc1ccccc1)N1CCOCC1 (centres unmarked) | -2.163
O=C(O)C(F)(F)F.O=C(O)C(F)(F)F.[H][C@@]12CCN(Cc3cnn(C)c3)[C@]1([H])CC[C@H](COCc1cccnc1)O2 | 1.823
CCN(CC1COc2ccccc2O1)C(=O)CCn1cncn1 (centres unmarked) | -7.117
Cc1cnn(CCC(=O)N2CCCC(c3nc(C)no3)C2)c1 (centres unmarked) | 10.08
CN(C)C(=O)N1CCC2(CC1)CCN(Cc1ccccn1)C2=O.O=C(O)C(F)(F)F | 0.8663
O=C(NCCCN1CCc2ccccc2C1)c1ccccc1Cl | 9.07
O=C(O)C(F)(F)F.[H][C@@]12CCN(Cc3ccc(F)c(F)c3)[C@]1([H])CC[C@@H](C(=O)NCC1CC1)O2 | -4.649
CN(C)c1cccc(C2CCN(c3ncccn3)CC2)n1 | -8.248
CC1(C2CCN(CC(N)=O)CC2)CN(Cc2ccccc2)C(=O)O1 (centres unmarked) | -6.201
CCc1csc(CNC2CCN(Cc3ccccc3)C2)n1 (centres unmarked) | 46.15 and 42.31
O=C(N[C@@H]1CN(CCc2ccc(F)cc2)C[C@H]1O)c1cscn1 | -11.21
Cc1nc(CN(C)CC2CCCN2c2cccnn2)nc2ccccc12 (centres unmarked) | 34.26 and 31.51 and 37.24
Cc1cnccc1-n1nc(C(C)C)nc1CCN(C)S(C)(=O)=O | -20.65 and -22.07
COCC1CCCN(C(=O)c2cc(Cn3ccc4ccccc43)[nH]n2)C1 (centres unmarked) | -19.63
Cc1ccc(CNC(=O)NC(C)Cn2cccn2)cn1 (centres unmarked) | 11.6
Cc1noc(C2CCN(C(=O)CCc3ccccn3)CC2)n1 | 10.06
Cc1cc(=O)n(CC(=O)Nc2ccc(C(N)=O)cc2)nc1C | 1.294
Cn1cc(CC(=O)N2CCCC(n3cncn3)C2)cn1 (centres unmarked) | 4.798
Cc1ccc(C(C)NC(=O)Cc2c(C)nc3cc(=O)[nH]n3c2C)s1 (centres unmarked) | -10.99
COCCNC(=O)c1cccnc1Sc1cc(OC)ccc1OC | -13.76
Cc1cccc(C(C(=O)NC(C)(C)CN2CCOCC2)N(C)C)c1 (centres unmarked) | 5.013
O=C(O)C(F)(F)F.[H][C@@]12COC[C@]1(CN(C)C)CN(C(=O)Cc1ccc(OC)cc1)C2 | -5.481
Cc1nc(C)n(Cc2cccc(NC(=O)NC(C)(CO)C3CC3)c2)n1 (centres unmarked) | -13.9
CC(=O)NC(=O)C1(CCCc2ccncc2)CCN1 (centres unmarked) | -7.393
Cc1cccc(C(=O)N2CCCN(Cc3cscn3)CC2)c1 | -1.148
Cl.NCCc1cn(Cc2ccccn2)c2ccccc12 | -14.56
CC(C)c1noc(CN(Cc2ccccc2F)C2CC2)n1 | 4.362
Cc1cc(C)c2c(NCc3nncn3C3CCCCC3)ncnc2n1 | 3.893
[H][C@@]12CS(=O)(=O)C[C@]1([H])N(C(=O)c1cccc3cccnc13)CCN2CCC | 14.44
O=C(c1ccc(N2CCOCC2)nc1)N1CCCC(n2ccnc2)C1 (centres unmarked) | 4.636
CC(C)NCc1nc(-c2ccc3c(c2)OCO3)c[nH]1.Cl.Cl | 1.866
CC(CCc1ccccc1)NC(=O)CN1CCOCC1 (centres unmarked) | -7.996
Cc1c(Cl)cccc1NC(=O)c1nc[nH]n1 | -0.3197
COCC(=O)N1CCC2(CC1)CN(c1ncccn1)CCO2 | -3.733
CCOCC1CN(C(=O)c2ccco2)Cc2cnn(C)c21 (centres unmarked) | -7.926
CCOCc1ncn2c1CN(C(=O)Nc1cccc(F)c1)CC2 | 0.6267
CCc1nc(CNc2ccc(F)c(F)c2)no1 | -1.956
CCc1nnc2n1CCN(C(=O)c1ccc(-c3ccco3)[nH]c1=O)C2 | 6.014
CC(C)Oc1ncccc1CNC(=O)c1ccccn1 | -1.481
Cc1nc(NCCCn2cccn2)c2c(n1)c(C)nn2C | -61.73 and -58.04
Cc1ccc(C(C(=O)NC(C)(C)CN2CCCC2)N(C)C)cc1 (centres unmarked) | 3.044
Cc1nc(CN2CCC(C(=O)O)(n3ccc(-c4ccco4)n3)CC2)co1 | -17.49
Cc1nccn1C1CCCN(C(=O)c2ccc3c(c2)CCC3)C1 (centres unmarked) | -0.8633
Cc1nc(CNCC2CN(C)CCO2)cs1 (centres unmarked) | -9.778
Cc1nc(C)n(CC2CCCN(c3ncnc4ccccc34)C2)n1 (centres unmarked) | 4.571
Cc1c(CN2CCCC2(C)C(=O)NC2CCCC2)cnn1C (centres unmarked) | 7.618
Cc1cnn(CC2CN(Cc3nnc(-c4occc4C)o3)CCO2)c1 (centres unmarked) | 0.2506
CN(C)c1ncc(I)c(C2CCCCN2C)n1 (centres unmarked) | 0.1609
c1cc(CN2CCCC3(CCN(CC4CCCO4)CC3)C2)n[nH]1 (centres unmarked) | 5.907
CC(O)(CN1CCC2(CC1)OCCO2)c1cccc(C(F)(F)F)c1 (centres unmarked) | 0
COc1ccc(CNC2CCN(c3ccccc3)C2)c(OC)c1OC (centres unmarked) | 0.4571
COc1ccc2cc(C(=O)N3CCCCC3Cn3cccn3)[nH]c2c1 (centres unmarked) | -8.34
CCS(=O)(=O)N(C)CCCNCc1c(C)nn(C)c1N(C)C | 3.549
Cc1cc(CN2CCOC(C)(C(=O)N3CCOCC3)C2)no1 (centres unmarked) | -0.7197
CC(C)n1cnc2c(-c3cccnc3)nc(C3CCNCC3)cc21.Cl.Cl | 2.129
Cc1cc(C)cc(OCCC(=O)N2CCCC(n3cncn3)C2)c1 (centres unmarked) | -14.12

The values are deposited in ChEMBL (CHEMBL3988442, “University of Dundee, Small-Polar-MMV Screening Library” (2021)).